These results are taken from PubChem BioAssay AID662 (National Center for Advancing Translational Sciences (NCATS), 2007).

The other results are listed elsewhere or left out. Further columns of the screen follow, without active or inactive calls. The list favours compounds with an active or inconclusive main result. The note in brackets gives the kind of curve behind each potency; many fits are weak.

The nature of the assay: Cell signaling CRE-BLA (Fsk stim). To be noted: CHO CRE-bla reporter (cAMP response element driving beta-lactamase), forskolin EC10, beta-lactamase ratio; measured here: 460 nm blue channel. In a few lines: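 AC50 values, positive or negative, reflect shifts in EC10 NKH 477-induced CRE-bla reporter activity in CHO cells. Incubation lasted 3 h at 37 °C before CCF4 substrate (2 h, room temperature) and ratiometric 460/530 nm reading.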
Turning to `Cc1cc(-c2nc3ncccc3o2)ccc1N`, the AC50 was 12.6 µM [rising, single point].
In the case of `Cc1ccc(-c2csc3nnc(SCC(=O)Nc4nsc(-c5ccccc5)n4)n23)cc1`, the AC50 is 6.31 µM [rising, partial curve].
The result for `CC1Cc2nc(SCC(=O)OCc3ccccc3)n(C)c(=O)c2S1` (stereo not given) reads 12.6 µM [rising, single point]; that for `CCOCCCNC(=O)C1c2ccccc2C(=O)N2CCc3ccccc3C12` (stereo not given), 20 µM [rising, partial curve].
The result for `CCc1nnc(NCC(=O)N2CCc3ccccc32)s1` reads 5.01 µM [falling, partial curve].
For the compound `N#Cc1cc2c(=O)n3ccccc3nc2n(Cc2cccnc2)c1=O`, the AC50 was 1.26 µM [rising, partial curve].
As to `O=C(Nc1cccc(F)c1)N1CCCC2(CCN(C(=O)c3ccncc3)CC2)C1`, the AC50 is 0.01 µM [rising, full curve, poor fit].
For `CCn1cc(C(=O)NCc2cccnc2)c2cc(OC)c(OC)cc2c1=O`, the AC50 was 7.94 µM [rising, partial curve].
The same measure for `CCOc1ccc(NC(=O)CCNS(=O)(=O)c2ccc3c(c2)c(=O)n(C)c(=O)n3C)cc1`: 0.0501 µM [rising, full curve, poor fit]; for `CC(C)(C)NC1=CC(=O)OC12CCCCC2`: 1.58 µM [rising, partial curve].
With `COc1ccc(-c2nn(-c3ccccc3)cc2C(=O)Nc2nc(CC(C)=O)ns2)cc1`, the AC50 is 7.94 µM [rising, partial curve].
For the compound `C=CCN1C(=O)CSc2ccc(C(=O)OCC)cc21`, the AC50 is 10 µM [rising, single point].
As to `CCCCN(C)C(=O)c1oc2ccc(S(=O)(=O)N3CCCCCC3)cc2c1C`, the AC50 was 25.1 µM [rising, single point].
Turning to `COc1ccc(C)cc1NC(=O)CN1CCN(S(=O)(=O)c2ccc(C(C)C)cc2)CC1`, the AC50 is 1.26 µM [rising, full curve].
Turning to `Cc1cc(NC(=O)CSc2ccc(-c3nc4cc(C)c(C)cc4[nH]3)cn2)no1`, the AC50 is 12.6 µM [rising, partial curve].
With `COc1ccc(-c2nnn(CC(=O)N(CC(=O)NC3CCCC3)c3cccc(C)c3)n2)cc1OC`, the AC50 is 12.6 µM [rising, partial curve].
`Cc1nc2cc(N3CCOCC3)c(NC(=O)C3CC3)cc2c(=O)n1Cc1ccccc1`: the AC50 was 10 µM [rising, partial curve].
The result for `N=C(N)SCCc1ccc(OCc2ccc([N+](=O)[O-])cc2)cc1` reads 0.00501 µM [rising, full curve, poor fit].
Consider `COc1ccc(-n2c(SCC(=O)Nc3nccs3)nc3c(c2=O)SC(C)C3)cc1` (stereo not given), for which the AC50 is 12.6 µM [rising, single point].
For the compound `O=c1oc2c(CN3CCCCC3)c(O)ccc2cc1-c1nc2ccccc2[nH]1`, the AC50 was 12.6 µM [rising, partial curve].
In the case of `CCC(=O)N1CCCc2cc(S(=O)(=O)N3CCN(c4ccccc4F)CC3)ccc21`, the AC50 was 15.8 µM [falling, partial curve].
The result for `CCCn1c(SCC(=O)Nc2nc3c(s2)CCCC3)nc2c1c(=O)n(C)c(=O)n2C` reads 5.01 µM [rising, partial curve]; that for `CCOC(=O)c1cn(CC)c2cc(N3CCCCC3)c(F)cc2c1=O`, 15.8 µM [rising, single point]; that for `COC(=O)Nc1nc2ccc(C(=O)c3ccccc3)cc2[nH]1`, 10 µM [rising, partial curve].
As to `CC(CC(=O)NC1CCSC1=O)c1ccccc1` (stereo not given), the AC50 was 0.631 µM [rising, full curve].
The same measure for `COc1cc2c(cc1OC)-c1cc(N3CCCc4ccccc43)nc(=O)n1CC2`: 0.2 µM [rising, full curve].
For `CCN(CC)S(=O)(=O)c1ccc(Cl)c(C(=O)NCC2CCCO2)c1` (stereo not given), the AC50 was 0.794 µM [falling, partial curve].
In the case of `O=C(CCCCCN1C(=O)c2ccccc2C1=O)Nc1ccc(S(=O)(=O)N2CCCCC2)cc1`, the AC50 was 6.31 µM [falling, partial curve].
As for `COc1ccc(-n2c(=O)c(-c3cccs3)nc3cncnc32)cc1`, the AC50 was 3.98 µM [rising, partial curve].
The same measure for `N#CCCN(C(=O)CSc1ccc2c(c1)OCCO2)c1ccccc1`: 0.0501 µM [falling, partial curve]; for `CCOc1ccc2[nH]c(C)c(CN(C)C)c(=O)c2c1`: 0.00316 µM [falling, full curve, poor fit].
The same measure for `COc1ccc(NC(=O)c2ccco2)cc1NC(=O)c1cccc(OC(C)C)c1`: 12.6 µM [rising, single point]; for `Cc1cc2nc(SCC(=O)Nc3nonc3C)c3c(c2cc1C)CCCC3`: 0.398 µM [falling, full curve]; for `Clc1cccc(Cl)c1-c1nnc2ccc(N3CCOCC3)nn12`: 3.98 µM [rising, full curve].
`COC(=O)[C@@]1(Cc2ccc(OC)cc2)[C@H]2c3cc(C(=O)N4CCCC4)n(CCSCCO)c3C[C@H]2CN1C(=O)c1ccccc1`: the AC50 was 25.1 µM [rising, partial curve, poor fit].
With `Cn1c(=O)c2c(n(Cc3ccccc3)c1=O)NC(=O)C2CC(=O)N1CCc2ccccc2C1` (stereo not given), the AC50 was 12.6 µM [falling, single point].
With `CCN1CCN(C(=O)CN(c2cc(OC)ccc2OC)S(C)(=O)=O)CC1`, the AC50 is 0.0501 µM [falling, full curve, poor fit].
`Cc1ccc(C)n1-c1ccc2c(c1)COC2=O`: the half-maximal activity concentration (AC50) was 0.0794 µM [rising, full curve, poor fit].
On to `CC[C@@H]1[C@H]2CCCCN3[C@@H]2[C@@H](C[C@H]3[C@@H]2C[C@H](C)C(=O)O2)[C@@H]2[C@H]1OC(=O)[C@H]2C`, for which the AC50 was 31.6 µM [falling, single point].
Take `CC(C)c1nc2oc3c(=O)[nH]cnc3c2c2c1CCC2`: the AC50 is 0.794 µM [rising, full curve].
The result for `N#Cc1cc2c(=O)n3ccccc3nc2n(CCN2CCOCC2)c1=O` reads 25.1 µM [rising, single point].
Regarding `CCCCC(=O)NCCNc1nc2c(c(=O)n(C)c(=O)n2C)n1Cc1ccc(F)cc1`, the AC50 is 12.6 µM [rising, partial curve].
The same measure for `COc1ccc(-c2nc(-c3ccc(NC(=O)c4ccncc4)cc3)no2)cc1OC`: 25.1 µM [falling, single point]; for `O=C(Cn1cnc2c(cnn2-c2ccc(Cl)cc2)c1=O)NCC1CCCO1` (stereo not given): 0.398 µM [falling, full curve, poor fit]; for `CCOC(=O)N1CCC(NC(=O)C2CCCN(c3nc4ccccc4o3)C2)CC1` (stereo not given): 25.1 µM [rising, single point].
The result for `Clc1ccc(-n2ncc3c(NCC4CCCO4)ncnc32)cc1` (stereo not given) reads 3.16 µM [rising, partial curve]; that for `CC1=C(C(=O)OC2CCCCC2)C(c2ccc(C)o2)C2=C(CCCC2=O)N1` (stereo not given), 12.6 µM [rising, partial curve].
The same measure for `COc1cc2nc(=S)n3[nH]c(CCn4nc(C)cc4C)nc3c2cc1OC`: 25.1 µM [rising, single point]; for `COc1ccc(C2c3sc(=O)[nH]c3SC3C(=O)N(c4ccccc4)C(=O)C32)cc1` (stereo not given): 2.51 µM [falling, full curve, poor fit].
For the compound `c1ccc2c(NCCN3CCOCC3)nc(-c3ccoc3)nc2c1`, the AC50 was 15.8 µM [rising, partial curve].
Regarding `CC(C)(C)n1ncc2c(=O)n(CC(=O)NCCc3ccccc3)cnc21`, the AC50 is 12.6 µM [rising, single point].
For the compound `O=C(Cn1cccc1C(=O)c1ccccc1)NCc1cccnc1`, the AC50 was 25.1 µM [rising, single point].
Consider `Cc1ccccc1-n1nnc2c(=O)oc3ccccc3c21`, for which the AC50 was 31.6 µM [falling, single point].
With `Cc1cccc(-n2c(N)c(C(=O)NCCN3CCOCC3)c3nc4ccccc4nc32)c1`, the AC50 was 12.6 µM [rising, partial curve].
Regarding `CCCOc1ccc(C2C(=O)N(C3CCCCC3)CC(=O)N2CCC)cc1OC` (stereo not given), the AC50 is 6.31 µM [rising, partial curve].
As to `O=C(O)c1cc(O)c2c(c1)C(=O)c1cccc(O)c1C2=O`, the AC50 was 7.94 µM [rising, partial curve, poor fit].
As for `O=C(Nc1nc2c(ccc3ccccc32)s1)c1ccco1`, the AC50 is 12.6 µM [falling, partial curve].
`O=C(NC1CCCCC1)N(CCN1CCOCC1)Cc1cc2cc3c(cc2[nH]c1=O)OCCO3`: the AC50 was 10 µM [rising, partial curve].
`Cn1c(=O)[nH]c(=O)c2c1nc(N1CCCCCC1)n2CCCSc1nc2ccccc2o1`: the AC50 was 0.398 µM [rising, single point].
As for `Cc1ccc(N2C(=O)C3C(C2=O)C(C(=O)c2ccc(Cl)cc2)N2CCCC32)cc1` (stereo not given), the AC50 is 3.16 µM [falling, full curve].
The same measure for `NC(=NCc1ccccc1)NC(=O)c1nc(Cl)c(N)nc1N`: 12.6 µM [falling, single point]; for `O=C(c1cnccn1)N1CCC2(CC1)CCN(c1ncccn1)CC2`: 5.01 µM [falling, single point].
For `CCN(CC)S(=O)(=O)c1ccc(C(=O)Nc2ncn(Cc3ccccc3)n2)cc1`, the AC50 was 0.02 µM [falling, full curve, poor fit].
In the case of `CCc1nnc(NC(=O)c2cccc(C(=O)Nc3nnc(CC)s3)n2)s1`, the AC50 is 0.0631 µM [falling, full curve, poor fit].
The same measure for `CCOC(=O)c1[nH]c2ccccc2c1NC(=O)c1cc(OC)c(OC)c(OC)c1`: 2.51 µM [rising, partial curve].

In general, AC50 refers to the concentration giving half of the maximal activity seen.
